Data as given in article PMC12700909.
No constants are given. Whether binding was seen depends on the method and setting. Some entries that bind do so weakly or less than the wild type.

By UniProt entry, the sequences of proteins in these tests, tags left out.
UniProt P07699: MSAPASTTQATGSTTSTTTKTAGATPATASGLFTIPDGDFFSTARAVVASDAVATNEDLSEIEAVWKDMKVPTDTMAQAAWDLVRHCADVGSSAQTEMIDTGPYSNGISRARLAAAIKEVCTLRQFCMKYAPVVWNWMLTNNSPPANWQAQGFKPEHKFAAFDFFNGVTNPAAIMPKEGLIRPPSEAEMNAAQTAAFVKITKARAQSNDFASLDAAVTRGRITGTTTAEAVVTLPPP

Assays:
[1] = target: potato virus X (PVX) coat protein (CP), native (potato virus X) (UniProt P07699); assay: SEC; VLPs assembled in vitro from purified CP on EGFP-SL1 mRNA (50:1 CP:RNA by mass) or circRNA (40:1), purified through a sucrose cushion; Superose 6 Increase, 10 mM Tris-HCl pH 8.0, 50 mM NaCl, 0.1 mg/mL, compared with free CP and native PVX; the assembly is templated on RNA; both purified
[2] = target: potato virus X (PVX) coat protein (CP), native (potato virus X) (UniProt P07699); assay: Ni-NTA-Nanogold TEM; mixed VLPs of rCP-His and native CP on gRNA deposited on grids, 10 nm Ni-NTA-Nanogold added for 30 min at room temperature, washed with 8 mM imidazole, negative stain; not quantitative by the paper's words; both purified
[3] = target: potato virus X (PVX) coat protein (CP), native (potato virus X) (UniProt P07699); assay: co-sedimentation; rCP-His and native CP mixed at ratios 7:3 to 1:9, assembled on PVX gRNA (CP:RNA 50:1 by mass); VLPs purified through a 30% sucrose cushion at 180,000 g; CPs separated by SDS-PAGE and the His-tag detected with Ni-NTA-Nanogold (Goldiblot His-tag Western blot); the assembly is templated on RNA; both purified

Row | Substance | binding [1] | binding [2] | binding [3]
1 | potato virus X (PVX) coat protein (CP), native (from UniProt P07699 1-237) | binds | – | –
2 | recombinant PVX coat protein with N-terminal 9xHis-tag (rCP-His) (from UniProt P07699 1-237) | – | binds | binds
